Data as given in PubChem BioAssay AID686938 (Drosophila RNAi Screening Center, 2013)

Purpose: 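Fly genes required for calcium entry once internal stores are emptied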 (primary screen)
Cell system: Drosophila S2R+ cells
Knock-down reagent: long dsRNA against Drosophila genes, about 0.25 µg dsRNA per well, roughly 10,000 cells
Time to read-out: 5 days of knock-down before the calcium assay
Conditions: thapsigargin (SERCA pump blocker) to empty calcium stores; entry signal taken 4 min after adding it
Measured: 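Per-well fluo-4 fluorescence in two replicates, unnormalised, measured in resting cells and 4 min after store depletion by the SERCA blocker thapsigargin; ratio of the two present in few wells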
Direction: calcium entry signal: higher = stronger calcium signal after store depletion; entry to resting ratio: higher = more calcium entry relative to resting level; resting calcium signal: higher = higher resting calcium signal
Call rule: 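Hit if the duplicate-averaged plate z-score for entry over resting signal is under −3; wells with weak total dye signal (Fmax z < −2) or more than 5 off-targets removed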
Meaning of the calls: active = strongly reduced calcium entry; inactive = no strong reduction
The screen tested about 23,000 reagents; shown is a random part of those with a known target gene and a result. Over the whole deposit, 75 (0.33%) are marked active. 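Raw plate signals without normalisation; calls rest on plate z-scores that were not deposited; ratio present for only 364 wells.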 A plus sign joins genes that one reagent is predicted to hit. Reagent sequences are not shown. Not stated in the record: the dose of the treatment.

calcium entry signal, replicate 1 (fluorescence units) | calcium entry signal, replicate 2 (fluorescence units) | entry to resting ratio | resting calcium signal, replicate 1 (fluorescence units) | resting calcium signal, replicate 2 (fluorescence units) | Outcome | gene knocked down | PubChem SID
3.56e7 | 7.06e7 | – | 1.52e7 | 2.67e7 | inactive | Sfp38D | SID104181602
3.80e7 | 3.91e7 | – | 1.76e7 | 1.63e7 | inactive | CG17290 | SID104186454
3.01e7 | 4.08e7 | – | 1.52e7 | 1.54e7 | inactive | RtGEF | SID104183396
3.76e7 | 5.65e7 | – | 1.79e7 | 2.78e7 | inactive | RtGEF | SID104201743
2.24e7 | 2.79e7 | – | 1.11e7 | 1.25e7 | inactive | pros | SID104192648
2.34e7 | 2.89e7 | – | 1.06e7 | 1.40e7 | inactive | pros | SID104196824
3.76e7 | 3.43e7 | – | 2.22e7 | 1.67e7 | inactive | pros | SID104202026
2.70e7 | 4.18e7 | – | 1.33e7 | 4.97e7 | inactive | EMC2B | SID104195298
2.41e7 | 3.86e7 | – | 1.19e7 | 1.98e7 | inactive | Rrp1 | SID104180576
4.61e7 | 3.33e7 | – | 2.30e7 | 1.43e7 | inactive | CheB42a | SID104202240
2.93e7 | 3.40e7 | – | 1.76e7 | 1.81e7 | inactive | CG33308 | SID104181211
2.39e7 | 2.53e7 | – | 1.15e7 | 1.32e7 | inactive | CG15412 | SID104180219
5.25e7 | 8.24e7 | – | 2.37e7 | 3.25e7 | inactive | Tsp74F | SID104190300
4.10e7 | 3.32e7 | – | 2.00e7 | 1.52e7 | inactive | CG4161 | SID104181722
2.61e7 | 2.59e7 | – | 1.46e7 | 1.52e7 | inactive | Wwox | SID104182822
3.51e7 | 4.02e7 | – | 1.97e7 | 1.70e7 | inactive | Wwox | SID104202231
3.59e7 | – | – | 1.72e7 | – | inactive | mr | SID104184124
2.27e7 | 3.73e7 | – | 1.11e7 | 1.74e7 | inactive | mr | SID104202215
2.75e7 | 2.86e7 | – | 1.43e7 | 1.42e7 | inactive | CG11899 | SID104196448
4.41e7 | 4.33e7 | – | 1.90e7 | 1.87e7 | inactive | run | SID104200376
3.15e7 | 3.29e7 | – | 1.79e7 | 1.64e7 | inactive | run | SID104201236

No new results follow: 6 of the entries above.
calcium entry signal, replicate 1 (fluorescence units) | calcium entry signal, replicate 2 (fluorescence units) | entry to resting ratio | resting calcium signal, replicate 1 (fluorescence units) | resting calcium signal, replicate 2 (fluorescence units) | Outcome | gene knocked down | PubChem SID
2.34e7 | 2.89e7 | – | 1.06e7 | 1.40e7 | inactive | pros | SID104196824
3.76e7 | 3.43e7 | – | 2.22e7 | 1.67e7 | inactive | pros | SID104202026
2.70e7 | 4.18e7 | – | 1.33e7 | 4.97e7 | inactive | EMC2B | SID104195298
2.41e7 | 3.86e7 | – | 1.19e7 | 1.98e7 | inactive | Rrp1 | SID104180576
4.61e7 | 3.33e7 | – | 2.30e7 | 1.43e7 | inactive | CheB42a | SID104202240
2.93e7 | 3.40e7 | – | 1.76e7 | 1.81e7 | inactive | CG33308 | SID104181211

The list goes on.
calcium entry signal, replicate 1 (fluorescence units) | calcium entry signal, replicate 2 (fluorescence units) | entry to resting ratio | resting calcium signal, replicate 1 (fluorescence units) | resting calcium signal, replicate 2 (fluorescence units) | Outcome | gene knocked down | PubChem SID
3.16e7 | 4.85e7 | – | 1.64e7 | 2.03e7 | inactive | Tsp66A + CG42661 + CG42660 | SID104190025
4.29e7 | – | – | 2.50e7 | – | inactive | CG17260 | SID104180289
3.56e7 | 2.30e7 | – | 1.65e7 | 1.15e7 | inactive | CG6012 | SID104182713
2.17e7 | 2.55e7 | – | 1.10e7 | 1.30e7 | inactive | pck | SID104198357
3.62e7 | 3.36e7 | – | 1.71e7 | 1.78e7 | inactive | CG8306 | SID104186933
2.82e7 | 3.42e7 | – | 1.21e7 | 2.23e7 | inactive | P5CDh1 | SID104191593
3.33e7 | 3.49e7 | – | 1.55e7 | 1.50e7 | inactive | CG1571 | SID104197860
5.21e7 | 4.40e7 | – | 2.49e7 | 2.03e7 | inactive | Lcp2 | SID104187248
3.30e7 | 4.13e7 | – | 1.56e7 | 1.87e7 | inactive | CG4955 | SID104199719
3.50e7 | 3.71e7 | – | 1.64e7 | 1.82e7 | inactive | RhoL | SID104196616
1.92e7 | 3.13e7 | – | 1.08e7 | 1.39e7 | inactive | TwdlN | SID104195605
4.47e7 | – | – | 2.23e7 | – | inactive | mRpS29 | SID104184190
3.77e7 | 6.43e7 | – | 1.93e7 | 2.42e7 | inactive | CG18581 | SID104190116
5.03e7 | 4.78e7 | 2.2 | 2.26e7 | 2.06e7 | inactive | faf | SID104196734
3.69e7 | 3.42e7 | – | 1.82e7 | 1.73e7 | inactive | nmdyn-D7 | SID104196808
4.70e7 | 2.07e7 | – | 2.28e7 | 1.05e7 | inactive | CG13590 | SID104184018
2.93e7 | 2.62e7 | – | 1.95e7 | 1.65e7 | active | betaTub56D | SID104187375
3.45e7 | 6.18e7 | – | 2.05e7 | 2.97e7 | inactive | grim | SID104191144
2.76e7 | 3.17e7 | – | 1.37e7 | 1.39e7 | inactive | grim | SID104202526
